# Source: PMC10058529
# By UniProt entry, the sequences of proteins in these tests, tags left out.
# UniProt P56696: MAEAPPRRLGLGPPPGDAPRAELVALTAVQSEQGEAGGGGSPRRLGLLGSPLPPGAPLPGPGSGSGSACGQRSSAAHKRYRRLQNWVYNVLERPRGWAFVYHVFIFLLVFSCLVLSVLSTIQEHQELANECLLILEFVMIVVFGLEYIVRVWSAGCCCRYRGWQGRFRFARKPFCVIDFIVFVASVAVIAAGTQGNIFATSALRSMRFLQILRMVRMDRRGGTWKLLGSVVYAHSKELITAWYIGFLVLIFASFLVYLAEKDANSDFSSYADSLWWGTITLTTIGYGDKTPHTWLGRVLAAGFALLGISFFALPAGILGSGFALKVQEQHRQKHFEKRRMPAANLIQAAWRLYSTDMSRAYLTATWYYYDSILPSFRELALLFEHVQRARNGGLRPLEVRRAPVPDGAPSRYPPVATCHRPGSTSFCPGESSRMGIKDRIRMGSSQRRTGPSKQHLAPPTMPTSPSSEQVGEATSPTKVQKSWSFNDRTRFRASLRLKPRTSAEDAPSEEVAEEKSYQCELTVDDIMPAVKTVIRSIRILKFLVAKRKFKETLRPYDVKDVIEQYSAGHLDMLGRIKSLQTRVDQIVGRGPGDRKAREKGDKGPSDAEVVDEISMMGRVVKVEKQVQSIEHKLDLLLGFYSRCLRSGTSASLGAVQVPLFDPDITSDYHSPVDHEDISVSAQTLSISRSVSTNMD
# UniProt Q13547: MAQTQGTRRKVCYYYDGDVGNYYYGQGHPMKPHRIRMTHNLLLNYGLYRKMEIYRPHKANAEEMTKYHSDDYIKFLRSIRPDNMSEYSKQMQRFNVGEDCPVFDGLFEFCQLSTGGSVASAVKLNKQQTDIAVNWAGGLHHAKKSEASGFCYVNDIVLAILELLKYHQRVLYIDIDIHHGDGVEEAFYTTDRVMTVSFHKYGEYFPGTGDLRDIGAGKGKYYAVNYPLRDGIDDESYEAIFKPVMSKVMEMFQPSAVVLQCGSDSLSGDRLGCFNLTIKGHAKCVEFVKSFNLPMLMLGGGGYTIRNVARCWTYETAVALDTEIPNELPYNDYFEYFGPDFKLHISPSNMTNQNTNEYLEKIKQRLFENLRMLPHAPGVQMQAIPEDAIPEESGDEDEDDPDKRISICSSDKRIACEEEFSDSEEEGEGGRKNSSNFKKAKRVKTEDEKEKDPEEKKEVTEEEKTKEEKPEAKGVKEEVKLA
# UniProt P08238: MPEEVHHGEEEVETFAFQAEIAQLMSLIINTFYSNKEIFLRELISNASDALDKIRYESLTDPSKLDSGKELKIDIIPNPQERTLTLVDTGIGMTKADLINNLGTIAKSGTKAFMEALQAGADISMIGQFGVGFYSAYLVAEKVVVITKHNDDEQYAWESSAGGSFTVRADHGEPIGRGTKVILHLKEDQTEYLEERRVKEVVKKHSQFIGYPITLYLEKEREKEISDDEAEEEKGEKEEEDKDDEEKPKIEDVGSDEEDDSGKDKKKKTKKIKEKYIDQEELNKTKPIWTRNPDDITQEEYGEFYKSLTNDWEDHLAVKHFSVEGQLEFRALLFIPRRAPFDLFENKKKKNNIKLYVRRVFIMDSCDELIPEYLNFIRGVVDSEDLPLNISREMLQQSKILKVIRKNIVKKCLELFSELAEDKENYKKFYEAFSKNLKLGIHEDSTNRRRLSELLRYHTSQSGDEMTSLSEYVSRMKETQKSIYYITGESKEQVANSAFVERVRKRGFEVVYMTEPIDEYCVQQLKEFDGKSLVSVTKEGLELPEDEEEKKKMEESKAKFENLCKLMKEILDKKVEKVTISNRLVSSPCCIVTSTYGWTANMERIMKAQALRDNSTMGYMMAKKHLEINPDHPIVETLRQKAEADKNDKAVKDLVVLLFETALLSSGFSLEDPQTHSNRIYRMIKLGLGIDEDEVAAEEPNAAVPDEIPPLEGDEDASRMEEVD
# No constants are given. Whether binding was seen depends on the method and setting. Binding seen in cells or lysates may run through a third protein. Some binding calls cover weakened binding; strength is not graded here.
# Columns and labels:
# [1] = target: potassium voltage-gated channel subfamily Q member 4 (KCNQ4), expressed from pcDNA3.1-KCNQ4-EGFP-8xHis (UniProt P56696); experiment: co-IP; HEK293T cells transfected with KCNQ4-EGFP-8xHis, HA-HSP90β and 3myc-HDAC1; NP40 lysis buffer; protein A/G PLUS-Agarose; Western blot for HA, His and myc; the precipitating antibody is not told for this panel
# [2] = target: potassium voltage-gated channel subfamily Q member 4 (KCNQ4), expressed from pcDNA3.1-KCNQ4-EGFP-8xHis (UniProt P56696); experiment: co-IP; HEK293T cells co-transfected with pcDNA3.1-KCNQ4-EGFP-8xHis and pcDNA3-HA-HSP90β, with or without VPA treatment; NP40 lysis buffer; KCNQ4 precipitated with anti-GFP antibody and protein A/G PLUS-Agarose, 4 °C for 24 h; HSP90β detected with anti-HA by Western blot
binding [1],binding [2],Substance
binds,–,"HDAC1, expressed from pCs2+-3myc-HDAC1 (from UniProt Q13547 1-482) (enzyme)"
binds,binds,"HSP90β, expressed from pcDNA3-HA-HSP90β (from UniProt P08238 1-724)"
